Source: paper PMC6199744, “Development of Chemical Proteomics for the Folateome and Analysis of the Kinetoplastid Folateome” (ACS Infectious Diseases, 2018)
This continues a long series; more values of the same kind are listed elsewhere.

System: L. major lysate proteins
Experiment: Multitargeted bead mixture chemoproteomics, single concentration competition, proteome-wide
Format: binding
Details: for fold change: vehicle control = 1

## Nc1nc2cccc(-c3ccccc3)c2n1Cc1ccc(Cl)c(Cl)c1 [compound 3]
LINJ.11.0960 40S RIBOSOMAL PROTEIN S5
  fold change: 0.95
LINJ.11.1180 40S RIBOSOMAL PROTEIN S15A, PUTATIVE
  fold change: 1.21
LINJ.15.1170 HY[…], CONSERVED
  fold change: 1.1
LINJ.18.0270 GLYCOGEN SYNTHASE KINASE 3
  fold change: 0.77
LINJ.21.1790 40S RIBOSOMAL PROTEIN S11, PUTATIVE
  fold change: 0.94
LINJ.22.0180 HY[…], CONSERVED
  fold change: 0.82
LINJ.25.2170 HY[…], CONSERVED
  fold change: 1.07
LINJ.28.2870 PROTEIN PHOSPHATASE 4 CATALYTIC SUBUNIT, PUTATIVE
  fold change: 0.83
LINJ.29.0020 TRA[…]-LIKE PROTEIN
  fold change: 1.09
LINJ.29.0110 HY[…], CONSERVED
  fold change: 0.52
LINJ.33.0960 40S RIBOSOMAL PROTEIN S3, PUTATIVE
  fold change: 1.13
LINJ.35.1820 HY[…], CONSERVED
  fold change: 0.89
LINJ.35.2240 RNA-BINDING PROTEIN, PUTATIVE
  fold change: 0.8
LINJ.36.1160 RIBOSOMAL PROTEIN L24, PUTATIVE
  fold change: 0.76
LINJ.36.1580 HY[…], CONSERVED,NIMA-RELATED PROTEIN KINASE, PUTATIVE
  fold change: 0.84
LMJF.01.0570 TRIC[…], PUTATIVE
  fold change: 0.88
LMJF.03.0190 U2 SPLICING AUXILIARY FACTOR, PUTATIVE
  fold change: 1.01
LMJF.03.0540 26S PROTEASE […], PUTATIVE
  fold change: 0.92
LMJF.05.0280 PROTEIN TYROSINE PHOSPHATASE, PUTATIVE
  fold change: 1
LMJF.05.1140 VACUOLAR ATPASE SUBUNIT-LIKE PROTEIN
  fold change: 0.97
LMJF.06.0370 GLUTAMINE SYNTHETASE, PUTATIVE
  fold change: 0.9
LMJF.07.1050 CATION-TR[…], PUTATIVE
  fold change: 0.98
LMJF.08.0410 HY[…], CONSERVED
  fold change: 0.95
LMJF.10.0310 PROTEIN TRANSPORT PROTEIN SEC23, PUTATIVE
  fold change: 1.06
LMJF.10.0910 SMALL GTP-BINDING PROTEIN RAB11, PUTATIVE
  fold change: 0.92
LMJF.11.0590 3-[…]-COA C[…] SUBUNIT, PUTATIVE
  fold change: 0.89
LMJF.11.1000 PYRUVATE PHOSPHATE DIKINASE, PUTATIVE
  fold change: 0.91
LMJF.11.1030 HY[…], CONSERVED
  fold change: 1.02
LMJF.13.1230 40S RIBOSOMAL PROTEIN S4, PUTATIVE
  fold change: 1.21
LMJF.14.0670 FATTY ACID ELONGASE, PUTATIVE
  fold change: 0.95
LMJF.14.1320 SERINE […] (SHMT-S)
  fold change: 0.94
LMJF.15.0040 HY[…], CONSERVED
  fold change: 0.71
LMJF.15.0970 NAD/FAD DEPENDENT DEHYDROGENASE, PUTATIVE
  fold change: 0.85
LMJF.16.0440 FUCOSE KINASE, PUTATIVE
  fold change: 0.83
LMJF.16.0550 OROTIDINE-5-PHOSPHATE DECARBOXYLASE/OROTATE PHOSPHORIBOSYLTRANSFERASE, PUTATIVE
  fold change: 0.99
LMJF.17.1290 T[…], PUTATIVE
  fold change: 0.68
LMJF.18.0700 HY[…], CONSERVED
  fold change: 1.02
LMJF.18.1090 CAMP PHOSPHO[…], PUTATIVE
  fold change: 1.05
LMJF.18.1280 HY[…], CONSERVED
  fold change: 0.96
LMJF.18.1510 P-TYPE H -ATPASE, PUTATIVE
  fold change: 1.2
LMJF.19.0200 ADP,ATP CARRIER PROTEIN 1, MIT[…], PUTATIVE
  fold change: 1.11
LMJF.19.1510 HY[…], CONSERVED
  fold change: 1.51
LMJF.20.1180 CALPAIN-LIKE CYSTEINE PEPTIDASE, PUTATIVE
  fold change: 0.82
LMJF.21.0015 HISTONE H4
  fold change: 1.06
LMJF.21.0250 HEXOKINASE, PUTATIVE
  fold change: 0.97
LMJF.21.0820 HY[…], CONSERVED
  fold change: 0.89
LMJF.21.1450 ARGININE N-METHYLTRANSFERASE, TYPE II, PUTATIVE
  fold change: 1
LMJF.21.1770 ATP SYNTHASE F1 SUBUNIT GAMMA PROTEIN, PUTATIVE
  fold change: 1.07
LMJF.21.1860 BETA TUBULIN
  fold change: 1.08
LMJF.22.0770 NADH-CYTOCHROME B5 REDUCTASE, PUTATIVE
  fold change: 1.16
LMJF.22.0990 HY[…], CONSERVED
  fold change: 0.9
LMJF.22.1630 CCR4 […], PUTATIVE
  fold change: 0.65
LMJF.23.0080 HY[…], CONSERVED
  fold change: 0.83
LMJF.23.0110 GDP-MANNOSE PYROPHOSPHORYLASE
  fold change: 0.84
LMJF.23.0210 ATP-BINDING CASSETTE PROTEIN SUBFAMILY C, MEMBER 1, PUTATIVE
  fold change: 0.99
LMJF.23.0640 HY[…], CONSERVED
  fold change: 0.87
LMJF.24.0070 HY[…], CONSERVED
  fold change: 0.75
LMJF.27.0130 HY[…], CONSERVED
  fold change: 1.26
LMJF.27.0650 HY[…], CONSERVED
  fold change: 1.14
LMJF.28.2510 ACYL-COA DEHYDROGENASE, PUTATIVE
  fold change: 0.89
LMJF.29.1500 HY[…], CONSERVED
  fold change: 1.05
LMJF.29.2200 GTP-BINDING PROTEIN, PUTATIVE
  fold change: 0.94
LMJF.29.2360 ASPARTYL AMINOPEPTIDASE, PUTATIVE
  fold change: 0.83
LMJF.30.0580 HY[…], CONSERVED
  fold change: 1.05
LMJF.30.1040 HY[…], CONSERVED
  fold change: 0.76
LMJF.30.3530 HY[…], CONSERVED
  fold change: 0.83
LMJF.30.3570 ZINC FINGER-DOMAIN PROTEIN, PUTATIVE
  fold change: 1.03
LMJF.31.1110 HY[…], CONSERVED
  fold change: 0.83
LMJF.31.2640 2-OXOGLUTARATE DEHYDROGENASE, E3 COMPONENT, […]-LIKE PROTEIN
  fold change: 0.85
LMJF.32.0450 AF467951_1 ribosomal protein S2
  fold change: 1.16
LMJF.33.3270 DELTA-12 FATTY ACID DESATURASE
  fold change: 1.2
LMJF.34.0010 HY[…], CONSERVED
  fold change: 0.92
LMJF.34.2610 ATP-DEPENDENT DNA HELICASE, PUTATIVE
  fold change: 0.87
LMJF.34.4620 HY[…], CONSERVED
  fold change: 1.08
LMJF.35.2150 HY[…], CONSERVED
  fold change: 1.01
LMJF.35.2980 CHAPERONE PROTEIN DNAJ, PUTATIVE
  fold change: 0.77
LMJF.35.4300 HY[…], CONSERVED
  fold change: 0.8
LMJF.35.4880 HY[…], CONSERVED
  fold change: 1.31
LMJF.36.0250 EIF3-I[…]-LIKE PROTEIN
  fold change: 0.94
LMJF.36.1940 INOSINE-GUANOSINE TRANSPORTER
  fold change: 1.01
Protein AF312586_1 IRON […] B1 (AF312583_1 iron […] B2)
  fold change: 1.08
Protein CLM00008612.1 UNNAMED PROTEIN PRODUCT
  fold change: 1.12
Protein LINJ.01.0790 […] 4A, PUTATIVE
  fold change: 1.15
Protein LINJ.03.0240 RIBOSOMAL PROTEIN L38, PUTATIVE
  fold change: 1.18
Protein LINJ.04.0630 HY[…], CONSERVED
  fold change vs vehicle control: 0.97
Protein LINJ.05.0070 DYNEIN LIGHT CHAIN, PUTATIVE
  fold change: 1.04
Protein LINJ.07.0210 CYTOCHROME C1, HEME PROTEIN, MIT[…], PUTATIVE
  fold change: 1.28
Protein LINJ.08.1020 STRESS-INDUCED PROTEIN STI1
  fold change vs vehicle control: 1.03
Protein LINJ.16.1510 PAR[…] PROTEIN 2C
  fold change: 1.03
Protein LINJ.19.0140 PROTEIN KINASE, PUTATIVE,MITOGEN-ACTIVATED PROTEIN KINASE, PUTATIVE
  fold change: 1.1
Protein LINJ.23.0860 3-KETOACYL-COA THIOLASE, PUTATIVE
  fold change: 1.02
Protein LINJ.24.2300 60S RIBOSOMAL PROTEIN L12, PUTATIVE
  fold change: 1.07
Protein LINJ.25.1460 GTP-BINDING PROTEIN, PUTATIVE
  fold change: 0.97
Protein LINJ.25.2230 SUCCINYL-COA […] SUBUNIT, PUTATIVE
  fold change: 1.04
Protein LINJ.26.0590 10 KDA HEAT SHOCK PROTEIN, PUTATIVE
  fold change: 0.85
Protein LINJ.26.0840 40S RIBOSOMAL PROTEIN S16, PUTATIVE
  fold change: 1.16
Protein LINJ.28.1310 GLUCOSE-REGULATED PROTEIN 78, PUTATIVE
  fold change: 1.05
Protein LINJ.28.1850 […]-ATP-ASE SUBUNIT 2, PUTATIVE
  fold change: 1.66
Protein LINJ.28.2280 DYNEIN LIGHT CHAIN LC6, FLAGELLAR OUTER ARM, PUTATIVE
  fold change: 1.04
Protein LINJ.31.0710 HY[…], CONSERVED
  fold change: 1.33
Protein LINJ.32.0240 DYNEIN LIGHT CHAIN, FLAGELLAR OUTER ARM, PUTATIVE
  fold change: 0.99
Protein LINJ.32.2960 […]-ATP-ASE SUBUNIT, PUTATIVE
  fold change vs vehicle control: 0.98
Protein LINJ.32.3230 PROTEIN PHOSPHATASE 2A CATALYTIC SUBUNIT, PUTATIVE
  fold change: 0.88
Protein LINJ.33.0350 HEAT SHOCK PROTEIN 83-1
  fold change: 1.1
Protein LINJ.35.2250 kinetoplastid membrane protein 11
  fold change: 0.81
Protein LINJ.35.3840 60S RIBOSOMAL PROTEIN L23, PUTATIVE
  fold change: 1.22
Protein LINJ.35.4200 POLY(A)-BINDING PROTEIN 2,POLY(A) BINDING PROTEIN, PUTATIVE
  fold change vs vehicle control: 1.12
Protein LMJF.01.0320 POLY(A) EXPORT PROTEIN, PUTATIVE
  fold change: 0.97
Protein LMJF.01.0650 MIT[…] BETA SUBUNIT, PUTATIVE
  fold change: 1.09
Protein LMJF.02.0450 VOLTAGE-DEPENDENT ANION-SELECTIVE CHANNEL, PUTATIVE
  fold change: 1.14
Protein LMJF.03.0200 DELTA-1-PYRROLINE-5-CARBOXYLATE DEHYDROGENASE, PUTATIVE
  fold change: 1.09
Protein LMJF.03.0980 […] 2 ALPHA SUBUNIT, PUTATIVE
  fold change: 1.17
Protein LMJF.04.1230 actin
  fold change vs vehicle control: 1.1
Protein LMJF.07.0220 HY[…], CONSERVED
  fold change vs vehicle control: 1.01
Protein LMJF.07.0270 […] DEACETYLASE-LIKE PROTEIN
  fold change: 1.11
Protein LMJF.07.0340 ATP-DEPENDENT DEAD/H RNA HELICASE, PUTATIVE
  fold change: 0.95
Protein LMJF.07.0640 HY[…], CONSERVED
  fold change: 0.87
Protein LMJF.07.1000 RNA BINDING PROTEIN-LIKE PROTEIN
  fold change: 1.35
Protein LMJF.07.1140 PEPTIDE […] REDUCTASE-LIKE
  fold change: 1.01
Protein LMJF.08.0320 MIT[…] RIBONUCLEASE, PUTATIVE
  fold change: 1.06
Protein LMJF.09.0970 […]-1 GAMMA
  fold change: 0.98
Protein LMJF.10.0210 NUCLEOLAR PROTEIN, PUTATIVE
  fold change: 1.06
Protein LMJF.11.0220 PTERIN-4-ALPHA-CARBINOLAMINE DEHYDRATASE, PUTATIVE
  fold change: 1.03
Protein LMJF.11.0350 14-3-3 PROTEIN, PUTATIVE
  fold change: 0.96
